Experimental data from article PMC10112894.

Chains of the proteins cited; added tags and fusions are not shown. Lines headed by an entry give the natural chain unless they say otherwise; changes in a name come on top.
UniProt Q22235: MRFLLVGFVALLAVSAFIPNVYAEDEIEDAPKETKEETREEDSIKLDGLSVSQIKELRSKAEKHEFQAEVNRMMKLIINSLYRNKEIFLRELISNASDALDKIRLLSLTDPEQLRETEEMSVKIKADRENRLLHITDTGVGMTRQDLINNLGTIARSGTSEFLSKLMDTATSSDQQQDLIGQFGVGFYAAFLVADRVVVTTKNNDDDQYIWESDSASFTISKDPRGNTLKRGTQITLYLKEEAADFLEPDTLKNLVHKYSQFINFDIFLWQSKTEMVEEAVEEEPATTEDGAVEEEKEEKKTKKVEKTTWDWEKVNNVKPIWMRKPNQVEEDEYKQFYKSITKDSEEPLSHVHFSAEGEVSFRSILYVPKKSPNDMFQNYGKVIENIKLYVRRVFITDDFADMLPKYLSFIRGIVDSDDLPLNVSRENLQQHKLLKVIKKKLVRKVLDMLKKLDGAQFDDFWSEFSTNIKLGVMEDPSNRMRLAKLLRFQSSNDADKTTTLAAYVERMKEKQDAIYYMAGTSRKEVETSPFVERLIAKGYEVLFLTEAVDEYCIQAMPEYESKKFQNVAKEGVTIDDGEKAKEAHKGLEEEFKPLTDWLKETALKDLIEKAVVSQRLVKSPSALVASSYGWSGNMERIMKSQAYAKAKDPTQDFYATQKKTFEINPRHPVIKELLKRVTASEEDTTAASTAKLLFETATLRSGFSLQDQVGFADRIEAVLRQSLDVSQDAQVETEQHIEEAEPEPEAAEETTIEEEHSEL

Biological target: T1, ASNA-1::GFP (C. elegans) (UniProt P30632)
T1 sequence: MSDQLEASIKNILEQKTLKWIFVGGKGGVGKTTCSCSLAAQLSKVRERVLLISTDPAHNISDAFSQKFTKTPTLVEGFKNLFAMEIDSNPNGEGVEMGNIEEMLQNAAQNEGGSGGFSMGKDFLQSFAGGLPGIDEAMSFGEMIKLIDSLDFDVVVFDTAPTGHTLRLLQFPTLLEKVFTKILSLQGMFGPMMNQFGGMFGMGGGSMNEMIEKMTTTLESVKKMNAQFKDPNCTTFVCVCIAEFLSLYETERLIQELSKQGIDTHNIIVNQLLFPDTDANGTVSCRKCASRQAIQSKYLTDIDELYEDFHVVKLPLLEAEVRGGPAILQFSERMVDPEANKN
Assay: co-IP; anti-GFP magnetic beads (ChromoTek GFP-Trap) with 800-1000 µg lysate of adult worms co-expressing both tagged proteins, 1 h at 4°C; lysis in 10 mM Tris-HCl pH 7.4, 150 mM NaCl, 5 mM EDTA, 0.5% NP40; western blot. Also done with ablated ASI neurons (oyIs84), in daf-28(tm2308), kpc-1(gk8), ins-4(tm3620), unc-31(e928) and sod-2(gk257) mutants, and after 5 mM H2O2 for 30 min

Substance | binding
3xFlag::ENPL-1^ΔCBD (from UniProt Q22235) | binds
Ollas::DAF-28::MYC (DAF-28 pro-peptide) (C. elegans) | no binding

No constants are given. Whether binding was seen depends on the method and setting. Binding seen in cells or lysates may run through a third protein. Binding can be weak; no strength is given. Tags and fused reporters may be left off the sequences shown.
